PubChem BioAssay AID1224831, NIAID, 2016

Screen: 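Retesting screen hits on the TLR4-driven TNF response with six separate siRNAs each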 (follow-up of hits)
System: human THP-1 B5 monocytic leukaemia cells carrying a TNF promoter luciferase reporter, made macrophage-like with PMA
Reagents: single siRNA against human genes, 50 nM
Time to read-out: about 68 h of knock-down, then 4 h LPS
Conditions: LPS (Salmonella minnesota, TLR-grade) at 10 ng/ml for 4 h; PMA 5 ng/ml present during knock-down
Detection: 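Firefly to renilla luciferase ratio of a TNF promoter reporter after 4 h LPS, scaled to plate median, turned into robust z-score, averaged over replicates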
Direction: TNF reporter z-score: higher = stronger LPS-induced TNF reporter signal; z-score, median over gene's siRNAs: higher = stronger TNF reporter signal across the gene's siRNAs
Active means: 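Active when the replicate mean z-score is about -1 or lower, or about 1.5 or higher; lowered and raised TNF reporter signal both count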
Calls: active = changed TNF reporter (either direction); inactive = little change
The deposit covers about 3,500 reagents; below is a random part of them. 731 of all reagents (21%) count as active. 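Active means either lowered or raised reporter signal; the gene-median score did not drive the per-siRNA calls.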

What is on record for CYB5A [SID315482232]?
TNF reporter z-score, replicate mean: -0.67; z-score, median over gene's siRNAs: 0.72; call: inactive

How did the screen score CYB5A [SID315482233]?
TNF reporter z-score, replicate mean: 1.74; z-score, median over gene's siRNAs: 0.72; call: active

For CYB5A [SID315482234], what does the deposit list?
TNF reporter z-score, replicate mean: 1.07; z-score, median over gene's siRNAs: 0.72; call: inactive

How did the screen score CYB5A [SID315482235]?
TNF reporter z-score, replicate mean: 0.37; z-score, median over gene's siRNAs: 0.72; call: inactive

For CYB5A [SID315482236], how do the results read?
TNF reporter z-score, replicate mean: 0.21; z-score, median over gene's siRNAs: 0.72; call: inactive

What did the screen give for CYB5A [SID315482237]?
TNF reporter z-score, replicate mean: 2.54; z-score, median over gene's siRNAs: 0.72; call: active

What is on record for TWF2 [SID315483636]?
TNF reporter z-score, replicate mean: 0.8; z-score, median over gene's siRNAs: -0.005; call: inactive

For TWF2 [SID315483637], what was measured?
TNF reporter z-score, replicate mean: -0.24; z-score, median over gene's siRNAs: -0.005; call: inactive

How did the screen score TWF2 [SID315483638]?
TNF reporter z-score, replicate mean: 0.23; z-score, median over gene's siRNAs: -0.005; call: inactive

Which result is listed for TWF2 [SID315483639]?
TNF reporter z-score, replicate mean: -0.57; z-score, median over gene's siRNAs: -0.005; call: inactive

For TWF2 [SID315483640], what was measured?
TNF reporter z-score, replicate mean: -0.63; z-score, median over gene's siRNAs: -0.005; call: inactive

With TWF2 [SID315483641], what was measured?
TNF reporter z-score, replicate mean: 0.97; z-score, median over gene's siRNAs: -0.005; call: inactive

For PCF11 [SID315485565], what was measured?
TNF reporter z-score, replicate mean: -3.11; z-score, median over gene's siRNAs: -2.19; call: active

For PCF11 [SID315485566], what was measured?
TNF reporter z-score, replicate mean: -2.09; z-score, median over gene's siRNAs: -2.19; call: active

How did the screen score PCF11 [SID315485567]?
TNF reporter z-score, replicate mean: -3.2; z-score, median over gene's siRNAs: -2.19; call: active

With PCF11 [SID315485568], what does the deposit list?
TNF reporter z-score, replicate mean: -1.92; z-score, median over gene's siRNAs: -2.19; call: active

What is on record for PCF11 [SID315485569]?
TNF reporter z-score, replicate mean: -1.6; z-score, median over gene's siRNAs: -2.19; call: active

With PCF11 [SID315485570], how do the results read?
TNF reporter z-score, replicate mean: -2.28; z-score, median over gene's siRNAs: -2.19; call: active

Which result is listed for SPAG5 [SID315483480]?
TNF reporter z-score, replicate mean: 0.09; z-score, median over gene's siRNAs: 0.07; call: inactive

What did the screen give for SPAG5 [SID315483481]?
TNF reporter z-score, replicate mean: 0.73; z-score, median over gene's siRNAs: 0.07; call: inactive

With SPAG5 [SID315483482], what was measured?
TNF reporter z-score, replicate mean: -0.05; z-score, median over gene's siRNAs: 0.07; call: inactive

Which result is listed for SPAG5 [SID315483483]?
TNF reporter z-score, replicate mean: 0.05; z-score, median over gene's siRNAs: 0.07; call: inactive

What did the screen give for SPAG5 [SID315483484]?
TNF reporter z-score, replicate mean: -0.53; z-score, median over gene's siRNAs: 0.07; call: inactive

For SPAG5 [SID315483485], how do the results read?
TNF reporter z-score, replicate mean: 1.41; z-score, median over gene's siRNAs: 0.07; call: inactive

For SPRR1B [SID315482916], how do the results read?
TNF reporter z-score, replicate mean: -0.48; z-score, median over gene's siRNAs: -0.615; call: inactive

What is on record for SPRR1B [SID315482917]?
TNF reporter z-score, replicate mean: 0.43; z-score, median over gene's siRNAs: -0.615; call: inactive

Which result is listed for SPRR1B [SID315482918]?
TNF reporter z-score, replicate mean: 0.81; z-score, median over gene's siRNAs: -0.615; call: inactive

What did the screen give for SPRR1B [SID315482919]?
TNF reporter z-score, replicate mean: -0.75; z-score, median over gene's siRNAs: -0.615; call: inactive

For SPRR1B [SID315482920], how do the results read?
TNF reporter z-score, replicate mean: -0.75; z-score, median over gene's siRNAs: -0.615; call: inactive

For SPRR1B [SID315482921], how do the results read?
TNF reporter z-score, replicate mean: -1.9; z-score, median over gene's siRNAs: -0.615; call: active

Which result is listed for ZNF300 [SID315487281]?
TNF reporter z-score, replicate mean: 0.81; z-score, median over gene's siRNAs: 0.54; call: inactive

What is on record for ZNF300 [SID315487282]?
TNF reporter z-score, replicate mean: -0.02; z-score, median over gene's siRNAs: 0.54; call: inactive

How did the screen score ZNF300 [SID315487283]?
TNF reporter z-score, replicate mean: -0.17; z-score, median over gene's siRNAs: 0.54; call: inactive

What did the screen give for ZNF300 [SID315487284]?
TNF reporter z-score, replicate mean: 0.33; z-score, median over gene's siRNAs: 0.54; call: inactive

Which result is listed for ZNF300 [SID315487285]?
TNF reporter z-score, replicate mean: 0.75; z-score, median over gene's siRNAs: 0.54; call: inactive

With ZNF300 [SID315487286], what was measured?
TNF reporter z-score, replicate mean: 0.9; z-score, median over gene's siRNAs: 0.54; call: inactive

For BATF2 [SID315487626], what does the deposit list?
TNF reporter z-score, replicate mean: -0.07; z-score, median over gene's siRNAs: 0.025; call: inactive

What is on record for BATF2 [SID315487627]?
TNF reporter z-score, replicate mean: 0.62; z-score, median over gene's siRNAs: 0.025; call: inactive

What is on record for BATF2 [SID315487628]?
TNF reporter z-score, replicate mean: 0.77; z-score, median over gene's siRNAs: 0.025; call: inactive

For BATF2 [SID315487629], how do the results read?
TNF reporter z-score, replicate mean: -1.01; z-score, median over gene's siRNAs: 0.025; call: active

For BATF2 [SID315487630], how do the results read?
TNF reporter z-score, replicate mean: 0.01; z-score, median over gene's siRNAs: 0.025; call: inactive

For BATF2 [SID315487631], what does the deposit list?
TNF reporter z-score, replicate mean: 0.04; z-score, median over gene's siRNAs: 0.025; call: inactive

Hits, among the entries above:
CYB5A [SID315482233]: TNF reporter z-score, replicate mean = 1.74; z-score, median over gene's siRNAs = 0.72; call = active
CYB5A [SID315482237]: TNF reporter z-score, replicate mean = 2.54; z-score, median over gene's siRNAs = 0.72; call = active
PCF11 [SID315485565]: TNF reporter z-score, replicate mean = -3.11; z-score, median over gene's siRNAs = -2.19; call = active
PCF11 [SID315485566]: TNF reporter z-score, replicate mean = -2.09; z-score, median over gene's siRNAs = -2.19; call = active
PCF11 [SID315485567]: TNF reporter z-score, replicate mean = -3.2; z-score, median over gene's siRNAs = -2.19; call = active
PCF11 [SID315485568]: TNF reporter z-score, replicate mean = -1.92; z-score, median over gene's siRNAs = -2.19; call = active
PCF11 [SID315485569]: TNF reporter z-score, replicate mean = -1.6; z-score, median over gene's siRNAs = -2.19; call = active
PCF11 [SID315485570]: TNF reporter z-score, replicate mean = -2.28; z-score, median over gene's siRNAs = -2.19; call = active
SPRR1B [SID315482921]: TNF reporter z-score, replicate mean = -1.9; z-score, median over gene's siRNAs = -0.615; call = active
BATF2 [SID315487629]: TNF reporter z-score, replicate mean = -1.01; z-score, median over gene's siRNAs = 0.025; call = active
